This note sets out measurements from the supplement of paper PMC12067093, “Discovery and optimisation of a covalent ligand for TRIM25 and its application to targeted protein ubiquitination” (Chemical Science, 2025).

Compound in this test: CC1Cc2ccccc2N1C(=O)C1CCCN(C1)C(=O)CCl (mixture of isomers) [TRIM25 ligand 11 (diastereomer mixture)]
Briefly: probe-labelled cysteine peptide fold change vs DMSO (competition) (log2 fold change); higher = less target engagement (more negative = stronger competition). To be noted: THP-1, incubation time: 4 h.

The list shows a part of the results.
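Note: competitive chemoproteomic profiling in live THP-1 cells with an iodoacetamide desthiobiotin (IA-DTB) probe, comparing probe-labelled peptide intensities in compound-treated cells against DMSO-treated controls.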

For “CTR9_Q6PD62_533_EHPNYVDCYLR (UniProt Q6PD62)”, the “probe-labelled cysteine peptide fold change” value runs as follows: (10 µM) 0.0383; (50 µM) 0.104.

As to “DCTD_P32321_83_YPYVCHAELNAIMNK (UniProt P32321)”, the “probe-labelled cysteine peptide fold change” value reads like this: (10 µM) 0.113; (50 µM) 0.15.

With “DCTD_P32321_60_IVGIGYNGMPNGCSDDVLPWR (UniProt P32321)”, the “probe-labelled cysteine peptide fold change” value by setting is: (10 µM) -0.11; (50 µM) 0.0873.

“CTSG_P08311_186_RQICVGDR (UniProt P08311)”: the “probe-labelled cysteine peptide fold change” value is 0.183 (10 µM) and 0.213 (50 µM).

With “DAZAP1_Q96EP5_124_IFVGGIPHNCGETELREYFK (UniProt Q96EP5)”, the “probe-labelled cysteine peptide fold change” value runs as follows: (10 µM) -0.399; (50 µM) -0.226.

Take “CYFIP1_Q7L576_918_NFVGPPHFQVICR (UniProt Q7L576)”: the “probe-labelled cysteine peptide fold change” value by setting is: (10 µM) 0.00496; (50 µM) 0.184.

With “CUL1_Q13616_149_RECDEGR (UniProt Q13616)”, the “probe-labelled cysteine peptide fold change” value by setting is: (10 µM) -0.00634; (50 µM) 0.0611.

Regarding “CTPS1_P17812_299_LLETCSIALVGK (UniProt P17812)”, the “probe-labelled cysteine peptide fold change” value is, setting by setting: (10 µM) 0.00504; (50 µM) 0.0867.

As for “DCTN1_Q14203_636_FELSENCSERPGLR (UniProt Q14203)”, the “probe-labelled cysteine peptide fold change” value (10 µM) was 0.0342 and the “probe-labelled cysteine peptide fold change” value (50 µM) was -0.075.

With “DCPS_Q96C86_37_EAGVGNGTCAPVR (UniProt Q96C86)”, the “probe-labelled cysteine peptide fold change” value (10 µM) is -0.128 and the “probe-labelled cysteine peptide fold change” value (50 µM) is -0.199.

Turning to “CXorf21_Q9HAI6_117_ETYLVPSSCK (UniProt Q9HAI6)”, the “probe-labelled cysteine peptide fold change” value is -0.124 (10 µM) and -0.315 (50 µM).

Take “CUL2_Q13617_103_GADYMDCLYR (UniProt Q13617)”: the “probe-labelled cysteine peptide fold change” value (10 µM) is 0.191 and the “probe-labelled cysteine peptide fold change” value (50 µM) came out at 0.129.

Turning to “CTPS1_P17812_30_SCGLHVTSIK (UniProt P17812)”, the “probe-labelled cysteine peptide fold change” value (10 µM) came to 0.184 and the “probe-labelled cysteine peptide fold change” value (50 µM) turned out to be 0.0551.

On to “DCAF11_Q8TEB1_288_EVLGGANDGCLYVFDR (UniProt Q8TEB1)”, for which the “probe-labelled cysteine peptide fold change” value is, setting by setting: (10 µM) 0.147; (50 µM) 0.201.

As to “CYC1_P08574_219_HGGEDYVFSLLTGYCEPPTGVSLR (UniProt P08574)”, the “probe-labelled cysteine peptide fold change” value (10 µM) amounted to 0.111 and the “probe-labelled cysteine peptide fold change” value (50 µM) is 0.164.
